The source of these data is patent publication EP2457593A1 (Lykera Biomed S.A., priority 2010, dated 2012).

This series can be described thus: general procedure: Fmoc solid-phase peptide synthesis; 2-chlorotrityl chloride resin; HCTU/HOBt/DIEA; HATU/HOAt/DIEA for thiazole; triphosgene/collidine for Asp; PyAO. The conditions noted are these: whole synthesis, hydrochloride salt (compound 3); run 1.

For “Cyclo[-Arg-Gly-Asp- 6 or 7 -Phe-Val-Ala-] [1]”, the isolated yield was 7.7%.

On to “Cyclo[-Arg-Gly-Asp- 6 or 7 -Phe-Val-Ala-] [2]”, for which the isolated yield worked out at 12%.
